{"source": "patent US6569633B1", "about": "“Modulation of the sulfonylurea receptor and calcium in adipocytes for treatment of obesity/diabetes” (Artecel Science, Inc., priority 1998, dated 2003)", "type_in_all_cases": "cell-based", "key": {"[1]": {"test_system": "FAS activity in human adipocytes", "assay": "Fatty acid synthase (FAS) activity in human adipocytes"}, "human adipocytes [2]": {"test_system": "human adipocytes", "assay": "Lipolysis (glycerol release into the culture medium) in human adipocytes", "conditions": "5-50 µM nitrendipine, general description", "protocol": "FIG. 4. The anti-lipolytic effect of glibenclamide in human adipocytes. Activation of lipolysis in adipocytes is typically measured by release of glycerol into the media. Human adipocytes were treated with 10 μM glibenclamide alone, 10 μM glibenclamide plus 10 μM diazoxide or 10 μM glibenclamide plus 30 μM nitrendipine for 48 hr. Glycerol release was determined as described (19). *p<0.01 vs. Control.\nHuman adipocytes were examined for changes in lipolysis regulation by measurement of glycerol release into the media. Glycerol was measured by using a standard method (19), although other techniques for measuring glycerol would be equally useful.\nHuman subcutaneous abdominal adipose tissue was obtained from patients undergoing elective abdominal cosmetic surgery, although other types of adipose tissue, such as mesenteric, retroperitoneal, perirenal, or omental may be useful in identifying these compounds. […] Human adipocytes may be cultured in multi-well plates with different treatments between 1 hour or 24 hours as indicated, and glycerol release into the culture medium was determined as an indicator for lipolysis using a one-step enzymatic fluorometric method. […]\nWe next investigated the role of adipocyte SUR1 on lipolysis. Lipolysis was measured as follows. […]"}, "human adipocytes [3]": {"test_system": "human adipocytes", "assay": "Intracellular Ca2+ ([Ca2+]i) by fura-2 fluorometry in isolated human adipocytes", "conditions": "nitrendipine with sulfonylurea", "protocol": "FIG. 2. Glibenclamide stimulation of [Ca^2+]i in isolated human adipocyte. [Ca^2+]i in isolated human adipocytes was determined fluorometrically as previously described (4,7). Briefly, the human adipocytes isolated as described above were incubated in DMEM medium overnight for cell recovery. Prior to [Ca^2+]i measurement, adipocytes were pre-incubated in serum-free medium for 2 hrs, rinsed with HBSS solution containing the following components in mM: NaCl 138, CaCl2 1.8, MgSO4 0.8, NaH2PO4 0.9, NaHCO3 4, glucose 20, glutamine 6, HEPES 20 and BSA 1%. Cells were then loaded with fura-2 acetoxymethyl ester (10 μM) in the same buffer for 45 min at 37° C. in the dark with continuous shaking. […] [Ca^2+]i was measured using dual excitation (340 and 380 nm) and single emission (510 nm) fluorometry. Following the establishment of stable baseline, the response to glibenclamide (10 and 20 μM) was determined. Digitonin (25 μM) and Tris/EGTA (100 mM) were used to measure maximal and minimal fluorescence to calibrate the signals, and final [Ca^2+]i was then calculated by the equation of Grynkiewicz et al. (17). […]\nThe functionality of the SUR1 receptor was determined with respect to calcium mobilization and small molecule effects. [Ca^2+]i response was measured fluorometrically in isolated human adipocytes using a standard method (2,16). […]"}}, "note": "For at least one compound, name, drawing or mass did not settle the structure."}
{"smiles": "CCOC(=O)C1=C(C)NC(C)=C(C(=O)OC)C1c1cccc([N+](=O)[O-])c1", "note": "(stereo not shown) [nitrendipine]", "values": [{"measurement": "glibenclamide-caused increase in FAS activity", "setting": "[1]; 10 μM glibenclamide plus 30 μM nitrendipine, 48 hr (FIG. 3A)", "value": "partially inhibited"}, {"measurement": "calcium-stimulated activities (fatty acid synthase activity, lipolysis, triglyceride accumulation)", "setting": "[1]; 30 μM nitrendipine, calcium-stimulated human adipocytes", "value": "complete inhibition"}, {"measurement": "SUR agonist-caused inhibition in lipolysis", "setting": "human adipocytes [2]", "value": "partially inhibited"}, {"measurement": "sulfonylurea mediated increases in adipocyte intracellular calcium", "setting": "human adipocytes [3]", "value": "completely blocked"}]}
